Results are given in words; binding and its absence hold for the method and conditions named. Binding seen in cells or lysates may run through a third protein. Here binding means that the protein was enriched with, or labelled near, the bait; the list need not be complete.
Target: T1, MEKK1 (gene product of Map3k1), full-length wild type (mouse) (UniProt P53349)
T1 sequence: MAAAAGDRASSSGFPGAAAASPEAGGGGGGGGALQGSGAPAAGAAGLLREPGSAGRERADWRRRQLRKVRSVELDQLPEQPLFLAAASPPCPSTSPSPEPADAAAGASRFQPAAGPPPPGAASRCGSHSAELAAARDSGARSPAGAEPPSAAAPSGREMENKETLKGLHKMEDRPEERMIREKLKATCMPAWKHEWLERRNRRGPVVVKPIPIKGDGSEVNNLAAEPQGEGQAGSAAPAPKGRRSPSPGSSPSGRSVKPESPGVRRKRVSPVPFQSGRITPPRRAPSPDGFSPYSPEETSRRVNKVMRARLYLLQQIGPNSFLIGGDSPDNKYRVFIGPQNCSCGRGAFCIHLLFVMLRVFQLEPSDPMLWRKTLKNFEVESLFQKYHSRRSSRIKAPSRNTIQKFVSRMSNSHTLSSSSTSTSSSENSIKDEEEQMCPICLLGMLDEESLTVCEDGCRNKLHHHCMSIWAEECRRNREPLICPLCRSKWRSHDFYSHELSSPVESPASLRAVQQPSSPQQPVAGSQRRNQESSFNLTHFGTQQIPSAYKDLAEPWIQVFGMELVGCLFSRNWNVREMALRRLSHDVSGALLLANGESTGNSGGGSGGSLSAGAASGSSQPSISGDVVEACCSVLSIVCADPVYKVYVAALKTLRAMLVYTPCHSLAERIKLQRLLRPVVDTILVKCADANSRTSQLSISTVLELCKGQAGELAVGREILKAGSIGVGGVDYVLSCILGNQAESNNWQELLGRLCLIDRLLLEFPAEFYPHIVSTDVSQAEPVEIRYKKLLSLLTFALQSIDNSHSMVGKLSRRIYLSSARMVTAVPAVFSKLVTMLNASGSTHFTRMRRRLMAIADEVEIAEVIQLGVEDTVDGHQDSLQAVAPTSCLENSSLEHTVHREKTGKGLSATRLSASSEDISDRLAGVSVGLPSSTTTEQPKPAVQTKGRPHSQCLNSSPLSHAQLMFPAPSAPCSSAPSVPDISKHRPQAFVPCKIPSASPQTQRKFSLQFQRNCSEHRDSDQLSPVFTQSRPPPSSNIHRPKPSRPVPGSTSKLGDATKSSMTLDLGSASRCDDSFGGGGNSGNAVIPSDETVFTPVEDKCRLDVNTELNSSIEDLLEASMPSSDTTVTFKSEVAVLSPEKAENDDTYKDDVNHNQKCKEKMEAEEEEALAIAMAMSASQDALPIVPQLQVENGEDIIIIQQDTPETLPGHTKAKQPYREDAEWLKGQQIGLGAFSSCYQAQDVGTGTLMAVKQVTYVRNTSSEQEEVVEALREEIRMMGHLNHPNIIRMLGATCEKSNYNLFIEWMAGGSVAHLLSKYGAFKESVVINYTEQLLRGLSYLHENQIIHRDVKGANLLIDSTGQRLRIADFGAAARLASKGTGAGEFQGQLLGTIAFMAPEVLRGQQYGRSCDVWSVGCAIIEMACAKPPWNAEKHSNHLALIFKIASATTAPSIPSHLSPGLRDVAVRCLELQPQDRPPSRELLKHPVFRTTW
Experiment: affinity purification with mass spectrometry; IP with FLAG antibodies from lysates of 67NR-OVA cells with varying Map3k1 status, after 24 h coculture with OT-I splenocytes; in-gel digestion and mass spectrometry

Chains of the proteins cited; added tags and fusions are not shown.
UniProt Q501J6: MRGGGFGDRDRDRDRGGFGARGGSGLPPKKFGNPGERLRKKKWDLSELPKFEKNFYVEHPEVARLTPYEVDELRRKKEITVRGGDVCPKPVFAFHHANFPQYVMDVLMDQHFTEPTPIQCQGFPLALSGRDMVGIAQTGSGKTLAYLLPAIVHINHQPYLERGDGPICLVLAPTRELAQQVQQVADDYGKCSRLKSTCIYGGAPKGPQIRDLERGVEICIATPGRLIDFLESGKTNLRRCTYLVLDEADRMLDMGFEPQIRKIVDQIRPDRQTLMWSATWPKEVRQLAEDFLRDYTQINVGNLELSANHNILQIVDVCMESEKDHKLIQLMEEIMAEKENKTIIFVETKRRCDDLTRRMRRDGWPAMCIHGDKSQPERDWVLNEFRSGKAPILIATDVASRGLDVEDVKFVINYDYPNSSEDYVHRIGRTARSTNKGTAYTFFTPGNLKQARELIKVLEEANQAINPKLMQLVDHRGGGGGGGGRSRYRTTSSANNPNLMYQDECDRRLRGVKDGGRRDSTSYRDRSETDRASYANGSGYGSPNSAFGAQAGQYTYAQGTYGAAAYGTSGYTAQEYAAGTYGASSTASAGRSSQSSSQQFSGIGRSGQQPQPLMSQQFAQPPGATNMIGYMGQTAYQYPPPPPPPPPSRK

DEAD box helicase 17 (DDX17) (from UniProt Q501J6 1-650)
binding: binds

— publication PMC11735090
